These are yes or no findings as the source states them, for the method shown. For some of these results: Binding seen in cells or lysates may run through a third protein. Some entries that bind do so weakly or less than the wild type.
How the values were obtained:
[1] = target: T1, recombinant CD85j-Fc fusion protein (human, UniProt Q8NHL6 24-461); test: pull-down; CD85j-Fc covalently immobilised on an amine-reactive gel column (ProFound Co-immunoprecipitation kit); MDDC lysates (0.5% Triton X-100; CD85j and HLA class-I blocked with mAbs before lysis) loaded, washed, eluted; eluates on non-reducing 4-12% NuPAGE with silver staining, protein sequencing of bands and immunoblot; only the target purified
T1 construct: CD85j (LILRB1, ILT2, LIR-1), human; also called CD85j fusion protein; LILRB1; source: bought: R&D System

The chains behind the UniProt entries cited, without tags or fusion partners. Residues count along the entry.
UniProt Q8NHL6, residues 24-461: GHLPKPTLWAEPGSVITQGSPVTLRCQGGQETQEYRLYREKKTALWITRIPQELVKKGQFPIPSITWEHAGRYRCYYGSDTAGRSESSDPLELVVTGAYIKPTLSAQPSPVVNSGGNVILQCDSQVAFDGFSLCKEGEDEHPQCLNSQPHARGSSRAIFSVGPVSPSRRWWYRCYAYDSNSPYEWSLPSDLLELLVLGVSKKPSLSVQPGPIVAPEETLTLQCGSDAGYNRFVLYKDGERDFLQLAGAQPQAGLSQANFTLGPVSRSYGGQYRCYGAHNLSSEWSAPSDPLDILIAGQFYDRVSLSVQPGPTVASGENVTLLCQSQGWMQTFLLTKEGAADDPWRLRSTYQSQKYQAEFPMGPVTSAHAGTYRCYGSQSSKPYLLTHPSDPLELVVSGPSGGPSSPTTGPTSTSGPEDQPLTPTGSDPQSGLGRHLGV

[2] = target: T1, recombinant CD85j-Fc fusion protein; test: SELDI-TOF-MS protein chip array; PS10 protein chip incubated with CD85j-Fc at 500 ug/ml in PBS, 4°C, 18 h; samples (MDDC lysates and eluted fractions) applied 2 h at room temperature; washes with 1 mM NaCl, 5 mM HEPES; captured proteins detected as mass peaks; only the target purified
[3] = target: T1, recombinant CD85j-Fc fusion protein; test: ELISA; CD85j-Fc-coated wells, increasing concentrations of S100A8 monomer, S100A9 monomer or S100A9 tetramer, 2 h at 37°C; detected with HRP goat anti-GST polyclonal antibody; both purified

binding [1]	binding [2]	binding [3]	Binder
binds	binds	–	recombinant GST-tagged human S100A8 monomer protein (natural protein, UniProt P05109 1-93, looked up, S100A8, human, recombinant, GST-tagged; source: bought: Tebu-bio) MLTELEKALNSIIDVYHKYSLIKGNFHAVYRDDLKKLLETECPQYIRKKGADVWFKELDINTDGAVNFQEFLILVIKMGVAAHKKSHEESHKE
binds	–	–	(S100A8/S100A9)2 tetramer (49 kDa) of MDDC (complex, UniProt P05109 1-93; P06702 1-114) chain 1: MLTELEKALNSIIDVYHKYSLIKGNFHAVYRDDLKKLLETECPQYIRKKGADVWFKELDINTDGAVNFQEFLILVIKMGVAAHKKSHEESHKE chain 2: MTCKMSQLERNIETIINTFHQYSVKLGHPDTLNQGEFKELVRKDLQNFLKKENKNEKVIEHIMEDLDTNADKQLSFEEFIMLMARLTWASHEKMHEGDEGPGHHHKPGLGEGTP

The remaining lines, values behind:

Binder	binding [1]	binding [2]	binding [3]
S100A9 monomer (14 kDa) of MDDC (protein, UniProt P06702 1-114) MTCKMSQLERNIETIINTFHQYSVKLGHPDTLNQGEFKELVRKDLQNFLKKENKNEKVIEHIMEDLDTNADKQLSFEEFIMLMARLTWASHEKMHEGDEGPGHHHKPGLGEGTP	binds	binds	–
S100A9 tetramer protein (protein, UniProt P06702 1-114) MTCKMSQLERNIETIINTFHQYSVKLGHPDTLNQGEFKELVRKDLQNFLKKENKNEKVIEHIMEDLDTNADKQLSFEEFIMLMARLTWASHEKMHEGDEGPGHHHKPGLGEGTP	–	–	binds
S100A8/S100A9 heterodimer (26 kDa) of MDDC (complex, UniProt P05109 1-93; P06702 1-114) chain 1: MLTELEKALNSIIDVYHKYSLIKGNFHAVYRDDLKKLLETECPQYIRKKGADVWFKELDINTDGAVNFQEFLILVIKMGVAAHKKSHEESHKE chain 2: MTCKMSQLERNIETIINTFHQYSVKLGHPDTLNQGEFKELVRKDLQNFLKKENKNEKVIEHIMEDLDTNADKQLSFEEFIMLMARLTWASHEKMHEGDEGPGHHHKPGLGEGTP	binds	binds	–
(S100A8)2/(S100A9) trimer (32 kDa) of MDDC (complex, UniProt P05109 1-93; P06702 1-114) chain 1: MLTELEKALNSIIDVYHKYSLIKGNFHAVYRDDLKKLLETECPQYIRKKGADVWFKELDINTDGAVNFQEFLILVIKMGVAAHKKSHEESHKE chain 2: MTCKMSQLERNIETIINTFHQYSVKLGHPDTLNQGEFKELVRKDLQNFLKKENKNEKVIEHIMEDLDTNADKQLSFEEFIMLMARLTWASHEKMHEGDEGPGHHHKPGLGEGTP	binds	binds	–

From article PMC3826667, “S100A9 protein is a novel ligand for the CD85j receptor and its interaction is implicated in the control of HIV-1 replication by NK cells” (Retrovirology, 2013)
